Laboratory results: PubChem BioAssay AID1347076 (National Center for Advancing Translational Sciences (NCATS), 2019)
Hit rate of the full screen: of about 400,000 compounds, about 13,000 (3.2%) were called active. Inconclusive results, whose numbers are uncertain, are shown with a selection of clear calls. The call rests on the fitted dose curve; in most records, active means well fitted cell-killing curve with a large enough effect; inconclusive means small, poorly fitted or top-dose-only effect, or effect the other way; inactive means flat fitted curve, though single readings scatter. Potencies of inconclusive entries are doubtful fits and often do not repeat.

assay: qHTS assay for MDR1-selective chemotherapeutics: Primary screen using the drug-selected MDR subline cells KB-V1; details: KB-V1 MDR cells viability, CellTiter-Glo, 72 h; activity change, negative = cytotoxicity: at 46.1 µM (top of the series); further: nearly all actives have a fitted effect of over 60% in size
In short: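 Compound-treated KB-V1 multidrug-resistant cells, 72 h, 37 degrees C; viability by CellTiter-Glo. Fitted qHTS curves give the values.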
On the % scale 0 is the no-effect control and ±100 the full control effect; potency means the concentration at half of the fitted maximal effect.

| SMILES | Potency | activity change, negative = cytotoxicity |
| --- | --- | --- |
| COc1ccc(NS(=O)(=O)c2ccc(NC(=O)c3ccc(Br)cc3)cc2)nn1 | inactive |  |
| COc1cccc(-c2nc(Cc3ccc(OC)c(OC)c3)no2)c1 | inconclusive: 18.4 µM [cytotoxic, single point] |  |
| Cc1cccc(C(=O)Nc2cccc(S(=O)(=O)NCc3ccco3)c2)c1 | inconclusive: 25.9 µM [cytotoxic, single point] |  |
| CCOc1ccc(NC(=O)CSc2nnc(-c3ccc(OCC)cc3)o2)cc1 |  | inconclusive: 18.3% |
| COCc1nn2c(N)c(C#N)cnc2c1-c1ccccc1 | inconclusive: 29.1 µM [cytotoxic, single point] |  |
| Cc1cc2cc(C)c3nnc(SCC(=O)NCc4ccco4)n3c2cc1C | inconclusive: 3.66 µM [cytotoxic, full curve] |  |
| CCC(C)NC(=O)COc1ccc(Br)c(C)c1 (centres undefined) | inconclusive: 18.4 µM [cytotoxic, single point] |  |
| COc1c(Br)cc([N+](=O)[O-])c(OC)c1C(=O)NC(=O)Nc1cc(Cl)cc(Cl)c1 | active: 6.51 µM |  |
| CCOc1ccc(CCNC(=O)CCCc2nnc3n(CC)c(=O)c4sccc4n23)cc1OCC | inactive |  |
| O=[N+]([O-])c1ccc(N=Nc2ccc(O)cc2O)cc1 | inactive |  |
| Cc1cccc(NC(=O)COc2ccc(-c3nn(C)c(=O)c4ccccc34)cc2)c1 | inconclusive: 29.1 µM [cytotoxic, single point] |  |
| O=C(CCNC(=O)Cn1ccc2ccccc2c1=O)NCc1ccc(F)cc1Cl |  | inconclusive: 87.2% |
| O=C(NCCC(=O)N(Cc1ccco1)Cc1cccs1)c1ccc([N+](=O)[O-])cc1 | inconclusive: 6.51 µM [cytotoxic, partial curve] |  |
| CCOc1ccc(C2/C(=C(/O)c3ccc(F)cc3)C(=O)C(=O)N2CCCN(C)C)cc1 (centres undefined) | inconclusive: 29.1 µM [rising, single point] |  |
| CC(=O)N1CCn2c3ccc(C)cc3c3cccc1c32 | inconclusive: 18.4 µM [cytotoxic, single point] |  |
| C=CCN1C(=O)c2ccccc2NC1c1cc(Br)cs1 (centres undefined) | inconclusive: 14.6 µM [cytotoxic, partial curve] |  |
| Cc1ccc(CNC(=O)c2c(-c3ccccc3Cl)noc2C)o1 | inactive |  |
| O=C(COc1ccccc1Cl)N1CCN(c2ccccn2)CC1 | inconclusive: 14.6 µM [cytotoxic, partial curve, poor fit] |  |
| COc1ccc(OC)c(NC(=O)CCNC(=O)N2CC(=O)Nc3ccccc32)c1 | inactive |  |
| C[C@@H]1CN([C@H](C)CO)C(=O)c2cc(NS(=O)(=O)c3cn(C)cn3)ccc2O[C@@H]1CN(C)S(C)(=O)=O | inconclusive: 4.11 µM [cytotoxic, partial curve] |  |
| Cc1ccccc1NC(=O)c1ccc(S(=O)(=O)N(C)C)cc1 | inconclusive: 0.731 µM [rising, full curve] |  |
| CCc1cc(=O)oc2c3c(cc(OCC(=O)NCc4cccnc4)c12)OC(C)(C)CC3 | inconclusive: 29.1 µM [cytotoxic, partial curve, poor fit] |  |
| O=C(c1cc2c(c(-c3cccc(-c4ccc(F)cc4)c3)n1)[C@H](CCO)N(C(=O)c1ccc3c(c1)OCO3)C2)N1CCOCC1 | inconclusive: 20.6 µM [cytotoxic, partial curve] |  |

| SMILES | Potency | activity change, negative = cytotoxicity |
| --- | --- | --- |
| CCOc1ccc(NS(=O)(=O)c2cccc(C(=O)N3CCN(C/C=C/c4ccccc4)CC3)c2)cc1 | active: 6.51 µM |  |
| Cc1ccc(OC(C)C(=O)Nc2ccc(S(=O)(=O)N3CCOCC3)cc2)cc1 (centres undefined) | inactive |  |
| COc1ccc(C(=O)Cn2c(Cl)nc3c2c(=O)n(C)c(=O)n3C)cc1 | inconclusive: 32.6 µM [cytotoxic, single point] |  |
| O=C(Nc1cccnc1)c1cc(-c2ccccc2)on1 | inactive |  |
| O=S(=O)(Nc1cnc2ccccc2c1)N1CCCCCC1 | inactive |  |
| O=C(O)c1ccc(N/N=C/c2ccc3ncccc3c2)cc1 | inconclusive: 29.1 µM [rising, single point] |  |
| O=C1C(c2[nH]c3ccc(S(=O)(=O)O)cc3c2O)=Nc2ccc(S(=O)(=O)O)cc21 | inconclusive: 4.11 µM [rising, partial curve, poor fit] |  |
| O=C(NCc1ccccc1)Nc1cccn(Cc2ccc(F)cc2)c1=O | active: 11.6 µM |  |
| COc1cc(OC)c(OC)cc1/C=C/c1nccc2ccccc12 | inconclusive: 29.1 µM [cytotoxic, single point] |  |
| O=S1(=O)CCOC[C@H](c2ccccc2)N1Cc1ccccc1 | inconclusive: 5.8 µM [rising, full curve, poor fit] |  |
| O=C(Nc1ccccc1C(=O)O)c1cc(S(=O)(=O)Nc2cccc(F)c2)ccc1Cl | inconclusive: 18.4 µM [rising, single point] |  |
| O=S(=O)(c1ccccc1)N(Cc1nc(-c2ccccc2)no1)C1CCCCC1 | active: 10.3 µM |  |
| CCC(=O)Nc1ccc(N2CCN(C(=O)c3cccs3)CC2)cc1 | inactive |  |
| CCOC(=O)N1CCN(c2c(NCCCN3CCCCCC3)c(=O)c2=O)CC1 | inconclusive: 29.1 µM [rising, partial curve, poor fit] |  |
| NC(=O)c1ccc(C(F)(F)F)n(Cc2c(Cl)cccc2Cl)c1=O | inconclusive: 18.4 µM [cytotoxic, single point] |  |
| CCc1ccc(S(=O)(=O)c2cn(Cc3ccccc3F)c3cc(OC)c(OC)cc3c2=O)cc1 | inactive |  |
| CCOC(=O)c1cnc2c(ccc3ccccc32)c1NCCCN(C)C | inactive |  |
| CCOc1ccccc1OCCCC(=O)OCC(=O)Nc1cccc(Cl)c1 | inconclusive: 20.6 µM [rising, single point] |  |
| Cn1c(=O)c2c(nc(N3CCN(Cc4ccccc4)CC3)n2CCCc2ccccc2)n(C)c1=O | inconclusive: 25.9 µM [cytotoxic, partial curve, poor fit] |  |
| CCN(CC)Cc1csc(C(N)=O)c1 | inactive |  |
| O=C(NC(c1ccc(Cl)cc1)c1ccsc1)C1CCN(Cc2cccc(C(F)(F)F)c2)CC1 (centres undefined) | inconclusive: 3.26 µM [cytotoxic, partial curve, poor fit] |  |
| CCOc1ccc(NC(=O)C2CCCCN2S(=O)(=O)c2ccccc2)cc1 (centres undefined) | inconclusive: 8.2 µM [cytotoxic, partial curve, poor fit] |  |
| COc1ccc(NC(=O)CSc2nnc(NC(=O)NC3CCCCC3)s2)cc1OC | inactive |  |

| SMILES | Potency | activity change, negative = cytotoxicity |
| --- | --- | --- |
| CC(=O)c1ccc(OCC(=O)OCC(=O)Nc2sccc2C(N)=O)cc1 | inactive |  |
| O=c1[nH]c(/C(Cl)=C/c2c(F)cccc2Cl)nc2cc(Cl)ccc12 | inactive |  |
| CCOc1ccc(CCNC(=O)c2cc([N+](=O)[O-])ccc2N2CCOCC2)cc1OCC | inconclusive: 7.31 µM [cytotoxic, partial curve] |  |
| CCc1ccc(-n2c(=S)sc3c(=O)n(-c4ccccc4C)c(SCC(=O)O)nc32)cc1 | inconclusive: 32.6 µM [rising, single point] |  |
| COc1ccc(NC(=O)COC(=O)c2ccc(-n3cnnn3)cc2)cc1Cl | inactive |  |
| CCCCn1c(N)c(N(CC(C)C)C(=O)c2ccc(OC)c(S(=O)(=O)N3CCOCC3)c2)c(=O)[nH]c1=O | inactive |  |
| COc1cccc(NC(=O)CN(C)C(C)C(=O)NC(C)c2ccc(Cl)cc2Cl)c1 (centres undefined) | inconclusive: 29.1 µM [cytotoxic, single point] |  |
| Cc1cccc2c1-c1sc(C(=O)NCCCN3CCCC(C)C3)cc1CO2 (centres undefined) | inactive |  |
| CNC(=S)N1CCc2ccccc2C1 | inconclusive: 29.1 µM [rising, single point] |  |
| Cc1ccsc1S(=O)(=O)N1CCC(CO)(CC2CCCCO2)CC1 (centres undefined) | inconclusive: 29.1 µM [cytotoxic, single point] |  |
| Nc1nc(=S)[nH]c2c1C1(CCCCC1)Cc1ccccc1-2 | active: 23.1 µM |  |
| COc1ccc(-c2ccc(SCC(=O)c3ccccc3)nn2)cc1OC | inconclusive: 29.1 µM [cytotoxic, single point] |  |
| CC12CCC(C(=O)Nc3ccc(SC(F)F)cc3)(CC1=O)C2(C)C (centres undefined) | inconclusive: 16.4 µM [cytotoxic, partial curve, poor fit] |  |
| COc1ccc([C@H]2CC(=O)C[C@@H](CCn3cc(Cc4ccccc4)nn3)O2)cc1 | inconclusive: 18.4 µM [cytotoxic, single point] |  |
| COc1ccccc1-c1nc(SC)n[nH]1 | inconclusive: 29.1 µM [rising, single point] |  |
| C[C@@H](NC(=O)OC(C)(C)C)c1nnc(S(=O)(=O)Cc2ccccc2)o1 | inconclusive: 18.4 µM [rising, single point] |  |
| COc1ccc2[nH]cc(CCN3C(=O)c4ccc(C(=O)O)cc4C3=O)c2c1 | inconclusive: 23.1 µM [rising, single point] |  |
| Cc1oc2ccc(O)c(CN3CCOCC3)c2c1C(=O)c1ccc(Cl)cc1 | inconclusive: 25.9 µM [cytotoxic, single point] |  |
| O=C(CCCc1ccccc1)N=C1SC2CS(=O)(=O)CC2N1c1ccccc1F (centres undefined) | inconclusive: 0.206 µM [rising, full curve, poor fit] |  |
| COc1ccc(C(=O)Nc2cccc(C(=O)NCc3ccccc3)c2)cc1 | inconclusive: 2.59 µM [cytotoxic, full curve] |  |
| CC1CCN(c2nc3ccc(C(=O)NCc4ccccc4Cl)cc3s2)CC1 | inactive |  |
| CC(C)(C)C(=O)/C=C(N)/C=C/c1ccccc1 | inconclusive: 29.1 µM [cytotoxic, single point] |  |
| C=CCNC(=S)N(Cc1ccccc1)Cc1ccccc1 | inconclusive: 18.4 µM [cytotoxic, single point] |  |

Structural class, those above containing bromine.

| SMILES | Potency | activity change, negative = cytotoxicity |
| --- | --- | --- |
| COc1ccc(NS(=O)(=O)c2ccc(NC(=O)c3ccc(Br)cc3)cc2)nn1 | inactive |  |
| CCC(C)NC(=O)COc1ccc(Br)c(C)c1 (centres undefined) | inconclusive: 18.4 µM [cytotoxic, single point] |  |
| COc1c(Br)cc([N+](=O)[O-])c(OC)c1C(=O)NC(=O)Nc1cc(Cl)cc(Cl)c1 | active: 6.51 µM |  |
| C=CCN1C(=O)c2ccccc2NC1c1cc(Br)cs1 (centres undefined) | inconclusive: 14.6 µM [cytotoxic, partial curve] |  |
